Source: patent publication US9439430B2, “Method of controlling resistant harmful plants” (priority 2012, dated 2016)
At least one compound was matched to its structure with a doubt left.

Legend:
[1] = tested on: TTTTT (all resistant and sensitive biotypes); experiment: Greenhouse test, PO application, mean over all resistant and sensitive biotypes; assay type: in vivo; details: (A) 50, (B) 20, mixture 50 + 20 g of AS/ha
From the text: (§1) The 1:1 mixture of the two soil types was used specifically for cultivating small-seeded dicotyledonous weed since the standard field soil on its own tends to silt up, which may have an adverse effect on the emergence of small-seeded weeds. The resistances mentioned in the tables were confirmed beforehand in standard monitoring experiments. Nevertheless, the origins examined may have additional, hitherto unconfirmed resistances to various mechanisms of action.
(§2) The pots were then cultivated in a greenhouse (12-16 h light, temperature day 20-22° C., night 15-18° C.) until the time of application. The pots were treated at various BBCH stages of the seeds/plants on a laboratory track sprayer with spray liquors comprising the compositions according to the invention, mixtures of the prior art or the individual components. Application of the active compounds or active compound combinations and wetting agents formulated as WG, WP, EC or otherwise was carried out at the appropriate growth stages of the plants. The amount of water used for spray application was 100-600 l/ha. After the treatment, the plants were returned to the greenhouses and fertilized and watered as required. The pots were cultivated in a greenhouse (12-16 h light, temperature day 20-22° C., night 15-18° C.).
(§3) 3 weeks after the application, the foliar effect was evaluated on a scale of 0-100%: […]

[2] = tested on: TTTTT (all resistant and sensitive biotypes); experiment: Greenhouse test, PE application, mean over all resistant and sensitive biotypes; assay type: in vivo; details: (A) 12.5, (B) 20, mixture 12.5 + 20 g of AS/ha
From the text: as §1, §2, §3

Cc1ccc2c(c1)[C@H](Nc1nc(N)nc(C(C)F)n1)[C@@H](C)C2 (some centres unmarked) [(A), indaziflam]
Difference in sensitivities Δ^D = TTTTT Ø resistant − TTTTT Ø sensitive [1]: Δ^D − 4%
Difference in sensitivities Δ^D = TTTTT Ø resistant − TTTTT Ø sensitive [2]: Δ^D − 16%
